Results published in the supplement of paper PMC10338343.
± gives the standard deviation. This is a selection; strong and weak results do not stand in their true shares. The uncertainty is large for many entries.

tested on: MIWI (PIWIL1) piRISC loaded with piRNA #2 (30 nt); test: pre-steady-state target cleavage rate (min^-1); MIWI and MILI are mouse PIWI proteins and EfPiwi is from a freshwater sponge; tags in brackets are library labels; higher = faster piRNA-guided slicing of the target; details: guide: piRNA #2 5'p-UUAGGUAACCCAGUAGAUCCAGAGGAAUUC; auxiliary factor: 500 nM mouse GTSF1
Summary of the method: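 Cleave-'n-Seq: a transcribed, DNA-blocked target RNA library (0.1 nM) was mixed with 1 nM active affinity-purified piRISC carrying one synthetic guide, with or without 500 nM GTSF1 partner protein, in HEPES–potassium acetate buffer at 33 °C for 0–8 or 0–960 min. Uncleaved targets were sequenced and normalised to depth and to weakly complementary targets. Three trials were pooled, and k3 was capped at 0.0001 min^-1. The pre-steady-state cleavage rate came from a burst-and-steady-state fit.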

Row | Sequence | pre-steady-state target cleavage rate
1 | CUUAAGGAGACCUUCAAGUGGGUUACCUAA | 0.000883 ± 0.0086
2 | CUUAAGGAGUGGAUCUACUCGGUUUCCUAA | 0.000707 ± 0.016
3 | CUUAAGGAGACCAUCUACUGGGUUGCCUAA | 0.00188 ± 0.0067
4 | CUUAAGGAGACCUAGAACUGGGUUACCUAU [g2:g14:cont:t1U] | 0.000167 ± 0.021
5 | CUUAAGGAGACCAUGUACUGCGUUACCUAA | 0.000719 ± 0.0078
6 | CUUAAGGAGUGGUUCUACUGGGAUACCUAA | 0.00364 ± 0.0037
7 | CUUAAGGAGAGGAUCUACUGAGGUUACCUAA | 0.000723 ± 0.012
8 | CUUAAGGAGACCUUCUACUCGGUUACGUAA | 0.000941 ± 0.0099
9 | CUUAAGGAGAGGAACUACUGGGUUAGCUAA | 0.000321 ± 0.032
10 | CAAUUCCUCUGGAUCUCACUGGGUUACCUAA | 0.0033 ± 0.0047
11 | CUUAAGGAGACGAUCUACUCGGUUUCCUAA | 0.000949 ± 0.01
12 | CAAUACCUCUCGAUCUACUGGGUUACCUAA | 0.625 ± 0.056
13 | CUUAAGGAGUGGAUCUUCUGGGUUACCUUA | 0.00261 ± 0.0041
14 | CUUAAGGAGACGAUCUACUGGGUGACCUAA | 0.000263 ± 0.035
15 | CUUAAGGAGAGGAUCUACCGGGUUACCUAA | 0.000588 ± 0.015
16 | CUUAAGGAGACCUAGUUCUGGGAUACCUAA | < 0.0001
17 | CUUAAGGAGACCAUCAACUGGGUUAGCUAA | 0.000505 ± 0.015
18 | CAAUUCCUCUGCAUCUACUGGGUUACCUAA | 0.57 ± 0.049
19 | CUUAAGGAGAGGAUCUAGUGGGUUACGUAA | 0.00221 ± 0.0061
20 | CUUAAGGAGACGUUCUUCUGGGUUACCUAA | 0.000559 ± 0.016
21 | CUUAAGGAGACCAUCUACUGGGUUACACUAA | 0.00113 ± 0.007
22 | CUUAAGGAGACCUAGAUCUGCGGUUACCUAA | 0.000646 ± 0.01
23 | GAAUUCCUCUGGUUCUACUGGGUUACCUUA | 0.427 ± 0.064
24 | CUUAAGGAGACCUAGAUCUGGGUUACGCUAA | 0.000817 ± 0.0095

Two entries picked at random from the list so far, as already listed:
Row | Sequence | pre-steady-state target cleavage rate
10 | CAAUUCCUCUGGAUCUCACUGGGUUACCUAA | 0.0033 ± 0.0047
17 | CUUAAGGAGACCAUCAACUGGGUUAGCUAA | 0.000505 ± 0.015

Carrying on:

Row | Sequence | pre-steady-state target cleavage rate
25 | CUUAAGGAGACCUAGAUCUGGGUUACACUAA | 0.000829 ± 0.01
26 | CUUAAGGACUGGAUCUACUGGCUUACCAAA | 0.000463 ± 0.043
27 | CUUUUCCUCUGGAUCUUCUGGGAUACCUAA | 0.146 ± 0.022
28 | CUUAAGGAGACGAUCUACUGGGUUUCCUUA | 0.00108 ± 0.0075
29 | CUUAAGGAGAGGAUCUACUGGGUUUCCAAA | 0.000477 ± 0.014
30 | CUUAAGGACUGGAUCUACUGGCUUACGUAA | 0.00804 ± 0.012
31 | CUUAAGGAGACCUUCUACUGGGUUACCUCA | 0.00167 ± 0.0056
32 | CUUAAGGAGACCUACUACUGGUUUACCUAA | 0.00158 ± 0.0059
33 | CUUAAGGAGUGGAUCUUCUGCGUUACCUAA | 0.00315 ± 0.0064
34 | CAAUUCCUCUGGCAUCUACUGGGUUACCUAA | 0.636 ± 0.17
35 | CUUAAGGAGACCUAGAUGACGGGUACCUAA | 0.000265 ± 0.038
36 | CUUAAGCUCUGGAUCUACUGGCAAACCUAA | 0.000723 ± 0.013
37 | CUUAAGGUCUGGAUCUUCUGGGAUACCUAA | 0.0453 ± 0.017
38 | CUUAAGGAGACCUAGAUCUGGGUUGCCUAA | 0.000628 ± 0.012
39 | CUUAAGGAGACGAUCUACUGGGUUUCCAAA | 0.00119 ± 0.0086
40 | CUUAAGGAGACGAUCUACGGGGUUACCUAA | 0.00123 ± 0.008
41 | CAAUUCCUCUGGUUCUACUGGGUUACCUUA | 0.475 ± 0.066
42 | CUUUUCCUCAGGAUCUACUGCGUUACCUAA | 0.524 ± 0.062
43 | CUAUUCCUCUGGAUCUACUGGCUUAGCUAA | 0.00404 ± 0.005
44 | CUUAAGGAGACCAUCUAUGGGUUACCUAA | 0.00149 ± 0.0074
45 | CUUAAGGAGUGGAUCUACUGGGUUACUAA | 0.00407 ± 0.0048
46 | CUUAAGGACUGGAUGCUACUGGGUUACCUAA | 0.0245 ± 0.033
47 | CUAUUCCUCUGGAUCUACUGGGUUACCUAA [g2:g28:cont:t1A] | 0.388 ± 0.062
48 | CUUAAGGAGAGGAUCUUCUGGGUUACGUAA | 0.00329 ± 0.0057

Row | Sequence | pre-steady-state target cleavage rate
49 | GAUUUCCUCUCGAUCUACUGGGUUACCUAA | 0.66 ± 0.067
50 | CUUAAGGACUGGAUCUACUGGCUAACCUAA | 0.000832 ± 0.028
51 | CUAUUCCUCUGGAUCUACUGGGUACCUAA | 0.000721 ± 0.011
52 | CUUAAGGAGACGAUCUAGUGGGUAACCUAA | 0.000233 ± 0.014
53 | CUUAAGGAGACCUUCUACUGGGAUACCAAA | 0.00128 ± 0.007
54 | CUUAAGGAGACCUUCUACUGGGUUGCCUAA | 0.00146 ± 0.0071
55 | CUUAAGGAGACCUAGAACUGGGUUCACCUAA | 0.000216 ± 0.055
56 | CUUAAGGAGACCUACUACUAGGGUUACCUAA | 0.00113 ± 0.0071
57 | GAAUUCCUGUGGAUCUACUGGGUUACGUAA | 0.637 ± 0.063
58 | CUUAAGGAGACGAUCUCUGGGUUACCUAA | 0.000562 ± 0.015
59 | CUUAAGGAGACGAUCUACACGGUUACCUAA | 0.000681 ± 0.018
60 | CUUAAGGAGACCUUCUACUGGGUUAGCAAA | 0.000125 ± 0.027
61 | CUUAAGGAGAGCUUCUACUGGGUUACCUAA | 0.00312 ± 0.0035
62 | CUUAAGGAGAGGAUGUACUGCGUUACCUAA | 0.00241 ± 0.0072
63 | CUUAAGGAGACCUACUACUGGGUUACCAAA | 0.00124 ± 0.0047
64 | CUUAAGGAGACCAUCUACUUGGUUACCUAA | 0.00125 ± 0.0065
65 | CUUAAGCUCUGGAUCUACUCGGGUUACCUAA | 0.000718 ± 0.011
66 | CUUAAGCUCUGGAUCUACCUGGGUUACCUAA | 0.000249 ± 0.026
67 | CUUAAGGAGUGGAUCUACUGGGAAACCUAA | 0.000465 ± 0.012
68 | CUUAAGGAGACGAUGUUCUGGGUUACCUAA | 0.000346 ± 0.022
69 | CUUAAGGAGACCUACUACUGGGUUACCUAC [g2:g16:cont:t1C] | 0.00248 ± 0.0052
70 | CUUAAGGAGACCAUCUCACUGGGUUACCUAA | 0.000646 ± 0.011
71 | CUUAAGGAGAGGAUCUACUGCCAUACCUAA | 0.000529 ± 0.015

Some values from the entries so far.
Value for CUUAAGGAGACCUAGAACUGGGUUCACCUAA under pre-steady-state target cleavage rate: 0.000216 ± 0.055
Value for CUUAAGGAGACCAUCUCACUGGGUUACCUAA under pre-steady-state target cleavage rate: 0.000646 ± 0.011
